These are yes or no findings as the source states them, for the method shown. Binding seen in cells or lysates may run through a third protein. Binding calls can cover weak binding; strength is not graded here.
Assays:
Experiment in all cases: pull-down; GST fusion kinase bound to glutathione sepharose, incubated with 35S-labeled substrate; 4°C, 40 minutes, 20 mM Tris pH 7.5, 150 mM NaCl, 0.5% Nonidet P-40, 1 mM DTT; full-length CKIε and CKIα→ε constructs dephosphorylated with SAP, or CKIε autophosphorylated with ATP, on the resin; only the target purified
[1] = target: GST-CKIεΔΔC (Xenopus laevis)
[2] = target: full-length Xenopus CKIε fused to GST, dephosphorylated (Xenopus laevis)
[3] = target: GST-CKIεΔC (Xenopus laevis)

binding [1]: binds
binding [2]: binds
binding [3]: binds
B1: Xenopus Dishevelled, 35S-labelled (protein, UniProt P51142 1-736)
chain: MAETKVIYHLDEEETPYLVKVPVPATDIRLRDFKAALGRGHAKYFFKAMDQDFGVVKEEISDDNAKLPCFNDRVVSWLASSEGSQPDSAPPAPATEVRPEPPPPVPPPIPPPPAERTSGIGDSRPPSFHPNVSGSTEQLDQDNESVISMRRDRVRRRESSEQAGVGRGVNGRTERHLSGYESSSTLLTSEIETSICDSEEDDTMSRFSSSTEQSSASRLLKRHRRRRKQRPPRLERTSSFSSVTDSTMSLNIITVTLNMEKYNFLGISIVGQSNERGDGGIYIGSIMKGGAVAADGRIEPGDMLLQVNDINFENMSNDDAVRVLRDIVHKPGPIVLTVAKCWDPSPQGYFTLPRNEPIHPIDPAAWVSHSAALSGSFPVYPGSASMSSMTSSTSVTETELSHALPPVSLFSLSVHTDLASVVKVMASPESGLEVRDRMWLKITIPNAFLGSDVVDWLYHHVEGFQDRREARKFASNLLKAGFIRHTVNKITFSEQCYYIFGDLTGCENYMTNLSLNDNDGSSGASDQDTLAPLPLPGASPWPLLPTFSYQYQAPHPYSTQPPAYHELSSYSYGMGSAGSQHSEGSRSSGSNRSDGGRGMQKDDRSGVAGVGGGDSKSGSGSESEYSTRSSIRRVGGGEAGPPSERSTSSRLPPHHPPSVHSYAAPGVPLSYNPMMLMMMPPPPLPPPGVCPPNSSVPPGAPPLVRDLASVPPELTATRQSFHMAMGNPSEFFVDVM
modifications: 35S-methionine label

— paper PMC2651596
